Here are results for one substance from publication doi:10.1101/2021.10.01.462762 (bioRxiv, 2021).

Amino acid sequences for entries named in this document (tags omitted). A change or cut given only in a name is not applied to a line headed by its entry.
UniProt P21514, whole entry, looked up, stated change not applied: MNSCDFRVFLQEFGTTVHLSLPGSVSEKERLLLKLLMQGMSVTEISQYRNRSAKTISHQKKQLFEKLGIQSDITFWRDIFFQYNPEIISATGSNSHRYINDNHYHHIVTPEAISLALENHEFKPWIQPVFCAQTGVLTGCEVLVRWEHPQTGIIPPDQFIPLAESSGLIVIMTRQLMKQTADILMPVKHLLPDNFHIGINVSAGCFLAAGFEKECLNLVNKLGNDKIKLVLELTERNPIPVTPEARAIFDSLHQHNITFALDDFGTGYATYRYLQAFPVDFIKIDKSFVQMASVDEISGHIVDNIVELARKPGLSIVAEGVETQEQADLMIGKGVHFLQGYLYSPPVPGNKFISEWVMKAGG

This experiment addresses PdeL EAL domain Y268C (PdeLEAL-3xFlag-StrepII) (E. coli) (UniProt P21514). As to the kind of experiment: cross-linking.

These are yes or no findings as the source states them, for the method shown. Some binding calls cover weakened binding; strength is not graded here.

As for “PdeL EAL domain Y268C (PdeLEAL-3xFlag-StrepII) (from UniProt P21514 101-362) (domain or fragment)”, the binding result is recorded as “binds”.
